Measurements from publication PMC7862700.
The entries are a selection whose mix differs from that of the whole data set. At the low end of the ranking the order means little.

target: T1, ETV3 (UniProt P41162-2); test: DAPPL (digital affinity profiling via proximity ligation, sequencing); conditions: 10 mM Tris-HCl pH 7.5, 50 mM NaCl, 1 mM DTT, 4% glycerol, room temperature, 30 min; GST-TFs on glutathione beads, 16-mer random dsDNA library, 0.1% …; high values mean tight binding; double strand, one strand shown; scale: fold enrichment (6-mer frequency, TF over GST control)
T1 sequence: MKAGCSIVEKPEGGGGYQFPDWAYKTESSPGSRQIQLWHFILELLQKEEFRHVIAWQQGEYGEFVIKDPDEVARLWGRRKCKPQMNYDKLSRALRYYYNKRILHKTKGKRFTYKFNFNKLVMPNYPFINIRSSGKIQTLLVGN

| Sequence | binding signal |
| --- | --- |
| TAACTC | 1.25 |
| CATATA | 1.09 |
| CTGCAC | 1.23 |
| ATTCTG | 1.26 |
| GCTCCT | 1.37 |
| GCGTTC | 1.11 |
| TTATTT | 1.41 |
| TACCCA | 1.06 |
| AGCAGC | 1.08 |
| ATAATT | 1.32 |
| GTCCAC | 0.992 |
| TGGAAA | 1.08 |
| ACCCCG | 1.11 |
| CTTATG | 1.64 |
| GAAGTT | 1.7 |
| TTTCAG | 1.27 |
| AACATC | 1.5 |
| CTTGCA | 1.45 |
| CTGCTA | 1.39 |
| TGTGGA | 1.02 |

| Sequence | binding signal |
| --- | --- |
| CACTCG | 1.09 |
| ACACGA | 0.997 |
| TTCAGC | 1.32 |
| TGTTAA | 1.16 |
| GTCCCT | 1.26 |
| TGGCCT | 1.35 |
| GATGAA | 1.11 |
| CCTACG | 1.38 |
| TCGCGC | 0.975 |
| CCTGGA | 1.37 |
| TACCTC | 1.25 |
| CGATTC | 1.23 |
| TATCGT | 1.15 |
| TCTTCA | 1.16 |
| ATGACG | 1.2 |
| CTCTTG | 1.35 |
| CTATAC | 1.24 |
| GGCTCA | 1.23 |
| GAAATC | 1.42 |

Individual results from the list.
binding signal with CTATAC reads 1.24
binding signal with TCTTCA reads 1.16
